# Primary screen of a compound library

From ChEMBL document CHEMBL3988442, “University of Dundee, Small-Polar-MMV Screening Library” (2021).

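Cell assay of Leishmania donovani living inside macrophages; the read-out is not stated. Concentration: 30 µM. Direction is inferred from retests: higher values go with stronger inhibition. Of about 69,000 compounds tested this way, about 1,000 (1.5%) reached 50% or more in at least one test.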

Each number is a percent effect as filed. How 0% and 100% were set is not recorded. Most values in the screen are low, and negative values occur. Compounds were drawn at random from those tested, without regard to their results. Two or more numbers in one place are separate tests of the same structure; such repeats can differ widely.

{"structure": "O=C(CO)N1CCCC(c2cc(C(F)(F)F)[nH]n2)C1", "stereo": "stereo unspecified", "percent effect": 3.534}
{"structure": "Cc1cc(C)n(C2CCCN(C(=O)Cc3csc(C)n3)C2)n1", "stereo": "stereo unspecified", "percent effect": 22.05}
{"structure": "CNc1nccc(-c2cnc3sc(C)c(C)n3c2=O)n1", "percent effect": "-2.039 and -1.084"}
{"structure": "N#Cc1cccc(S(=O)(=O)N2CCCCC2CCN2CCCC2=O)c1", "stereo": "stereo unspecified", "percent effect": 16.55}
{"structure": "CN(Cc1cc(C2CC2)[nH]n1)C(=O)c1ccccc1C1CCNC1", "stereo": "stereo unspecified", "percent effect": -2.799}
{"structure": "Cc1nnc2n1CCN(Cc1ncc(-c3ccc(F)cc3)o1)C2", "percent effect": 10.36}
{"structure": "O=C(c1ccoc1)N1CCO[C@]2(CCC[C@@H]2COCc2ccncc2)C1", "percent effect": 4.168}
{"structure": "CCCN1CCC2(Cc3ccccc3NC2=O)C1", "stereo": "stereo unspecified", "percent effect": 16.48}
{"structure": "O=C(O)C(F)(F)F.[H][C@@]12C[C@@H](C(=O)NC)N(C)[C@]1([H])CN(C(=O)c1ccco1)C2", "percent effect": -2.43}
{"structure": "CCc1nn(-c2cc(Oc3ccccc3)nc(C)n2)c(N)c1C#N", "percent effect": 10.54}
{"structure": "COc1c(Cl)cc(Cl)cc1CN1CCC(C(N)=O)C1", "stereo": "stereo unspecified", "percent effect": -9.109}
{"structure": "CC(C)[C@]1(O)CN(C(=O)C2(Cn3cccn3)CC2)C[C@H]1C", "percent effect": -13.26}
{"structure": "COc1ccc2c(c1)C(=O)N(C)C1(CCN(CC=C(C)C)CC1)N2", "percent effect": 1.275}
{"structure": "CC(C)C(NC(=O)NCC1CC1)c1nnc2n1CCC2", "stereo": "stereo unspecified", "percent effect": 22.03}
{"structure": "COCCOc1ncccc1NCc1nc2ccccc2n1C", "percent effect": -31.23}
{"structure": "CCOC(=O)c1cnn(-c2cc(Oc3ccccc3C)ncn2)c1N", "percent effect": -23.83}
{"structure": "COc1cc(OC)c(CNC(=O)NCC(=O)N2CCCC2)c(OC)c1", "percent effect": 23.01}
{"structure": "Cc1nn(C)c(Cl)c1C1CCCN1CC(=O)N1CCOCC1", "stereo": "stereo unspecified", "percent effect": 21.24}
{"structure": "CN(C)C(C)(C)CNCc1cn(C)nc1-c1cccnc1.Cl", "percent effect": -13.18}
{"structure": "CC(c1ccc(F)cc1F)N1CCN(CCN2CCCC2=O)CC1", "stereo": "stereo unspecified", "percent effect": -13.81}
{"structure": "Cc1nn(C)c2c(=O)n(CC(=O)NCc3ccc(N(C)C)cc3)ccc12", "percent effect": -0.2518}
{"structure": "CCOC1CCCN(C(=O)c2cnc3c(cnn3C3CCCC3)c2)C1", "stereo": "stereo unspecified", "percent effect": -4.762}
{"structure": "[H][C@@]12CS(=O)(=O)C[C@]1([H])N(Cc1cccc(O)c1)CCN2CC1CC1", "percent effect": 28.7}
{"structure": "O=C(O)C(F)(F)F.O=C(O)C(F)(F)F.c1cncc(OC[C@@H]2CCC[C@@]23CN(Cc2nccs2)CCO3)c1", "percent effect": 31.77}
{"structure": "CCn1cnnc1C1CCN(C(=O)c2ccc(Cl)cc2OC)CC1", "percent effect": 1.891}
{"structure": "O=C(CC1CCC2(CC1)CCN(Cc1nccs1)CC2)N1CC=CC1", "percent effect": -13.52}
{"structure": "O=C(C(CNCc1ccccn1)c1ccccc1)N1CCOCC1", "stereo": "stereo unspecified", "percent effect": 18.09}
{"structure": "Cn1c(=O)cc(C(=O)NC(Cc2ccsc2)c2cccnc2)[nH]c1=O", "stereo": "stereo unspecified", "percent effect": 13.52}
{"structure": "O=C1CO[C@H](c2ccc(NS(=O)(=O)Cc3ccccc3)cc2)[C@@H](CO)N1", "percent effect": 7.158}
{"structure": "O=C(CCC(=O)N1CCOCC1c1ccccc1)c1cccs1", "stereo": "stereo unspecified", "percent effect": -8.648}
{"structure": "CCN1CC(C(=O)NCCc2csc(-c3ccncc3)n2)CC1=O", "stereo": "stereo unspecified", "percent effect": 20.13}
{"structure": "NCc1cc(NCC(c2ccccn2)N2CCOCC2)ncn1", "stereo": "stereo unspecified", "percent effect": 5.843}
{"structure": "CCc1cnc(CN(C(C)=O)C2CCN(CCS(C)(=O)=O)C2)o1", "stereo": "stereo unspecified", "percent effect": 4.854}
{"structure": "CC(C)CC(=O)N1CCc2ccc(S(=O)(=O)N3CCN(C)CC3)cc2C1", "percent effect": 13.06}
{"structure": "COCCn1ccnc1C1CCCN(C(=O)c2cc(F)cc(F)c2)C1", "stereo": "stereo unspecified", "percent effect": -12.44}
{"structure": "CCOC(=O)c1cc2n(n1)CCCO2", "percent effect": 26.27}
{"structure": "CCCNC(=O)c1ccc(S(=O)(=O)NC2(COC)CCCC2)cc1", "percent effect": 8.201}
{"structure": "Cn1cc(N2CC3(CCN(Cc4cccnc4)CC3)OCC2=O)cn1.O=C(O)C(F)(F)F.O=C(O)C(F)(F)F", "percent effect": 24.68}
{"structure": "COC(=O)C(NC(=O)CC(C)C)c1cc(F)ccc1F", "stereo": "stereo unspecified", "percent effect": 17.07}
{"structure": "COCCOc1ccnc(-c2noc([C@@H]3CCCN3C3CCC3)n2)c1", "percent effect": -2.406}
{"structure": "[H][C@@]12CCN(C[C@@H]1CN1CCCCC1)[C@@H](CNC(=O)Nc1ccsc1)C2", "percent effect": 7.275}
{"structure": "Cc1cc(C(=O)N2CCCC(c3nc(C)no3)C2)on1", "stereo": "stereo unspecified", "percent effect": -6.344}
{"structure": "O=C(CN1CCOC1=O)N1CC[C@@H](c2ccc3ccccc3c2)[C@H](O)C1", "percent effect": 11.61}
{"structure": "O=C(Nc1nncs1)N1CCC(c2ccc(O)cc2)CC1", "percent effect": -12.09}
{"structure": "O=C(NCc1nncn1C1CCCCC1)C1CNCCO1", "stereo": "stereo unspecified", "percent effect": 12.89}
{"structure": "Cn1cc(C2CCCN2C(=O)CCCOc2ccc(F)cc2F)cn1", "stereo": "stereo unspecified", "percent effect": 17.19}
{"structure": "[H][C@@]12CCN(C(=O)c3cc(-c4ccco4)nc4c(Cl)cccc34)[C@]1([H])CNC2", "percent effect": 0.9275}
{"structure": "Cc1ccccc1CN1CCN(C(=O)c2ccn(C(C)(C)C)c2)CC1", "percent effect": -13.68}
{"structure": "CCN1CC2(CC1=O)CN(C(C)=O)CCN(C(=O)NC(C)C)C2", "stereo": "stereo unspecified", "percent effect": 24.33}
{"structure": "O=C(CNC(Cn1cccn1)c1ccccc1)Nc1cnccn1", "stereo": "stereo unspecified", "percent effect": 7.996}
{"structure": "CN(Cc1cc(C(C)(C)C)n[nH]1)C(=O)CCC(=O)NC1CCCC1", "percent effect": 3.486}
{"structure": "COc1cccc(CNC(=O)C(C)n2ccnc2C(C)C)c1OC", "stereo": "stereo unspecified", "percent effect": -35.36}
{"structure": "O=C1NCCCCC1Sc1ccc(F)cc1F", "stereo": "stereo unspecified", "percent effect": 44.71}
{"structure": "CCC[C@@H]1CN(S(=O)(=O)c2ccc(C)c(F)c2)C[C@H]1N(C)C", "percent effect": 1.885}

The last 6 entries again:

Result for CCN1CC2(CC1=O)CN(C(C)=O)CCN(C(=O)NC(C)C)C2 (stereo unspecified) was 24.33%.
Result for O=C(CNC(Cn1cccn1)c1ccccc1)Nc1cnccn1 (stereo unspecified) was 7.996%.
Result for CN(Cc1cc(C(C)(C)C)n[nH]1)C(=O)CCC(=O)NC1CCCC1 was 3.486%.
Result for COc1cccc(CNC(=O)C(C)n2ccnc2C(C)C)c1OC (stereo unspecified) was -35.36%.
Result for O=C1NCCCCC1Sc1ccc(F)cc1F (stereo unspecified) was 44.71%.
Result for CCC[C@@H]1CN(S(=O)(=O)c2ccc(C)c(F)c2)C[C@H]1N(C)C was 1.885%.